Screening data, single-dose tests

From ChEMBL document CHEMBL3988442, “University of Dundee, Small-Polar-MMV Screening Library” (2021).

Each number is a percent effect as filed.
How 0% and 100% were set is not recorded. Most values in the screen are low, and negative values occur.
The compounds are a random part of those screened.
Two or more numbers in one place are separate tests of the same structure; such repeats can differ widely.

Mtb cholesterol medium: 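Whole-cell growth test on Mycobacterium tuberculosis, read after 4 days in a medium based on cholesterol and the lipid DPPC; the read-out is not stated. Tested at 50 µM. Higher reads as more growth inhibition (inferred: compounds with an IC50 in retests scored well above the rest). Size under these conditions: about 69,000 compounds, about 370 of them at 50% or above in at least one test.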
Mtb glucose medium: 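Whole-cell growth test on Mycobacterium tuberculosis, read after 3 days in glucose-containing 7H9 medium; the read-out is not stated. Concentration: 50 µM. The record gives no direction; compounds that gave an IC50 in retests scored well above the rest, so higher reads as more growth inhibition. About 69,000 compounds were tested under these conditions; 1.1% (about 760) showed 50% or more at least once.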

compound: Cc1nn(C)cc1CN(C)C(=O)c1cnccn1
Mtb cholesterol medium: 6.17
Mtb glucose medium: 16.22

compound: Cn1cc(-c2nc(CN3CCn4c(nnc4C4CC4)C3)cs2)cn1
Mtb cholesterol medium: -15.83
Mtb glucose medium: -20.03

compound: CC(C)(C)c1nnc(CN2CCOC(Cn3cccn3)C2)o1 (configuration not stated)
Mtb cholesterol medium: -3.267
Mtb glucose medium: -0.04402

compound: CS(=O)(=O)c1cn[nH]c1C1CCCN(C(=O)Cn2cccn2)C1 (configuration not stated)
Mtb cholesterol medium: 7.692
Mtb glucose medium: 5.634

compound: CC(=O)N1CCCC(c2ccc(N3CCOCC3)cn2)C1 (configuration not stated)
Mtb cholesterol medium: -4.907
Mtb glucose medium: -19.26

compound: COc1ccc(COCC(O)CSc2ccc(NC(C)=O)cc2)cc1 (configuration not stated)
Mtb cholesterol medium: -30.79
Mtb glucose medium: 1.711 & 10.17

compound: Cc1ccc(CN2CCC(n3cc(CN4CCC(O)CC4)nn3)CC2)s1
Mtb cholesterol medium: 11.02
Mtb glucose medium: 13.76

compound: CC(=O)N1CCC2(CCN(CC3CCCCC3)C2)CC1
Mtb cholesterol medium: 11.48
Mtb glucose medium: 20.01

compound: O=C1C(NCc2nnc3n2CCCC3)CCCN1c1ccccc1 (configuration not stated)
Mtb cholesterol medium: -27.27
Mtb glucose medium: -14.75

compound: CCC(NC(=O)c1c(C(=O)O)cnn1C)c1ccc(C)cc1C (configuration not stated)
Mtb cholesterol medium: -15.27
Mtb glucose medium: -19.37

compound: Cc1ccc(NC2CCN(C(=O)c3sccc3C3CC3)CC2)nn1
Mtb cholesterol medium: -8.441
Mtb glucose medium: 0.5508

compound: Cc1cccnc1NC(=O)CNC(=O)c1ccccc1Cl
Mtb cholesterol medium: -20.26
Mtb glucose medium: -10.14

compound: COCCN(C)C(=O)c1cc2c(s1)CCN2C(=O)C1CC1
Mtb cholesterol medium: -14.5
Mtb glucose medium: -43.58

compound: O=C(c1ccc(-c2cccc3c2CCNC3)o1)N1CCCCC1
Mtb cholesterol medium: 11.57
Mtb glucose medium: 7.709

compound: COCCN(C(=O)c1cc(-c2ccc(C)s2)[nH]n1)C1CC1
Mtb cholesterol medium: -14.96
Mtb glucose medium: 9.19

compound: CN(CC(=O)N1CCCC1Cn1cccn1)c1cnccn1 (configuration not stated)
Mtb cholesterol medium: 4.823
Mtb glucose medium: 5.403

compound: [H][C@@]12CCN(C(=O)c3cccn3C)C[C@@]1([H])O[C@H](c1nc(C)cs1)C2
Mtb cholesterol medium: -1.792 & -3.912
Mtb glucose medium: 2.765 & -2.238

compound: CN(C)c1ncc2c(n1)CCCC2NC(=O)C1CC1 (configuration not stated)
Mtb cholesterol medium: 1.837 & 4.354
Mtb glucose medium: -10.76

compound: CCOc1cc(C)nc(N2CCN(C(=O)c3ccnn3C)CC2)n1
Mtb cholesterol medium: -1.196
Mtb glucose medium: 41.49

compound: Cc1ncc(C(=O)NCCOc2ccccc2F)c(C)n1
Mtb cholesterol medium: -0.4422
Mtb glucose medium: 0.9544 & -23.75

compound: COc1c(C2CCCN2CCOc2ccccc2C#N)c(C)nn1C (configuration not stated)
Mtb cholesterol medium: -11.1
Mtb glucose medium: 3.865

compound: CCN1CC(CN(C)Cc2nc(-c3ccc(F)cc3)oc2C)CC1=O (configuration not stated)
Mtb cholesterol medium: -9.483
Mtb glucose medium: -5.207

compound: CC(C)N(Cc1ccccc1)Cc1csc(-c2ncccn2)n1
Mtb cholesterol medium: -24.74
Mtb glucose medium: -16.97 & 1.479

compound: COc1ccc(CN2Cc3nnn(C)c3C(COCCN(C)C)C2)cc1.O=C(O)C(F)(F)F.O=C(O)C(F)(F)F (configuration not stated)
Mtb cholesterol medium: 20.41
Mtb glucose medium: 27.5

compound: CC(=O)N1CCCC1c1nnn2cc(Nc3ccccc3)ccc12.O=C(O)C(F)(F)F (configuration not stated)
Mtb cholesterol medium: -2.79 & -1.181
Mtb glucose medium: 16.13 & -2.029

compound: COc1ccc(S(=O)(=O)NC(=O)COC2CCCCC2)cc1
Mtb cholesterol medium: 6.437
Mtb glucose medium: 7.285

compound: CCc1csc(CCNC(=O)C2CC(=O)N(C(C)C)C2)n1 (configuration not stated)
Mtb cholesterol medium: -25.44
Mtb glucose medium: -42.2

compound: Cc1ccc(NC(=O)NC(C)c2nc[nH]n2)cc1 (configuration not stated)
Mtb cholesterol medium: 13.19
Mtb glucose medium: 34.78

compound: CC(O)CN1CCN(C(=O)c2ccc(Br)o2)CC1 (configuration not stated)
Mtb cholesterol medium: -23.49
Mtb glucose medium: -9.381

compound: Cc1nccn1C1CCCN(C(=O)c2ccnc(-n3ccnc3)c2)C1 (configuration not stated)
Mtb cholesterol medium: -25.16
Mtb glucose medium: -30.26

compound: O=c1n(CC2CCCO2)nc(CC2CCNCC2)n1-c1ccccc1 (configuration not stated)
Mtb cholesterol medium: -5.504
Mtb glucose medium: 15.11

compound: CCCn1ccnc1-c1nccn1CCn1cnnc1
Mtb cholesterol medium: -2.861
Mtb glucose medium: 1.362

compound: O=C(c1c2c(NCC3CC3)ncnc2n2ccccc12)N1CCCC1
Mtb cholesterol medium: -9.316
Mtb glucose medium: -22.33

compound: CCN1CC(C(=O)NC(C)(C)C(=O)OC)CC1=O (configuration not stated)
Mtb cholesterol medium: -8.244
Mtb glucose medium: -11.39

compound: O=C(O)C(F)(F)F.[H][C@@]12CN(Cc3ccccn3)C[C@]1([H])CN(C(=O)c1cccc(F)c1)C2
Mtb cholesterol medium: -0.4868
Mtb glucose medium: -14.08

compound: Cc1occc1C(=O)Nc1cnn(CCN2CCOCC2)c1
Mtb cholesterol medium: -17.44
Mtb glucose medium: -13.44

For reference, 2 entries once more:

compound,Mtb cholesterol medium,Mtb glucose medium
CC(=O)N1CCC2(CCN(CC3CCCCC3)C2)CC1,11.48,20.01
O=c1n(CC2CCCO2)nc(CC2CCNCC2)n1-c1ccccc1 (configuration not stated),-5.504,15.11